Experimental data published in PubChem BioAssay AID2318 (National Center for Advancing Translational Sciences (NCATS), 2010).
The shares of active, inactive and inconclusive entries below differ from those in the screen. Where the call is inconclusive, the potency comes from a doubtful curve fit. Calls of active or inactive are those of the source. Calls follow the shape of the full dose curve.

assay: Cycloheximide Counterscreen for Small Molecule Inhibitors of Shiga Toxin (Confirmatory); details: protein synthesis reporter, Shiga toxin assay; series mostly up to 38.3 µM
Potency is read from the fitted curve at half-maximal effect.

Compound | Potency
Cc1cc(C(=O)CS(=O)(=O)c2ccc(F)cc2)cc(C)c1O | inconclusive: 22.5 µM [activator, partial curve, poor fit]
O=C(NCCN1C(=O)S/C(=C\c2ccc(Cl)cc2)C1=O)c1ccc(F)c(S(=O)(=O)N2CCOCC2)c1 | inconclusive: 6.34 µM [activator, full curve]
Cc1nc(N2CCN(C(=O)c3ccco3)CC2)nc2c1C(=O)CCC2 | inconclusive: 22.5 µM [activator, partial curve]
COc1ccc(-c2nc(NC(=O)CSc3nnc4ccccn34)ns2)cc1 | inconclusive: 22.5 µM [activator, single point]
COc1ccc2cc(C(=O)NCc3ccccc3)[nH]c2c1 | inconclusive: 25.2 µM [activator, partial curve, poor fit]
CC(=O)c1ccc(N2CCN(S(=O)(=O)c3ccc4c(c3)CC(C)N4C(C)=O)CC2)cc1 (stereo not given) | inactive
CCc1ccc(C(=O)c2oc3nc(C)cc(C)c3c2N)cc1 | inconclusive: 22.5 µM [activator, partial curve, poor fit]
N#Cc1cc2c(nc1SCC(=O)Nc1cc(Cl)ccc1Cl)C1CCN2CC1 | inconclusive: 20 µM [activator, partial curve]
COC(=O)c1ccc(NC(=O)Cc2ccc(F)cc2)cc1 | inconclusive: 12.6 µM [activator, partial curve]
CCC(=O)N1CCN(c2ccccc2NC(=O)c2ccc([N+](=O)[O-])o2)CC1 | inconclusive: 25.2 µM [activator, partial curve, poor fit]

Rewritten field by field: part of the list above
O=C(NCCN1C(=O)S/C(=C\c2ccc(Cl)cc2)C1=O)c1ccc(F)c(S(=O)(=O)N2CCOCC2)c1
  Potency: inconclusive: 6.34 µM [activator, full curve]
CC(=O)c1ccc(N2CCN(S(=O)(=O)c3ccc4c(c3)CC(C)N4C(C)=O)CC2)cc1 (stereo not given)
  Potency: inactive
